Conditions in all cases: whole synthesis, scale 0.25 mmol
Series [1] can be described thus: general procedure: Fmoc solid-phase peptide synthesis; Fmoc-Arg(Pmc)-HMP-resin; HBTU/HOBt; DCC/HOBt for final Boc-Gly.
Series [2] can be described thus: general procedure: Fmoc solid-phase peptide synthesis; Fmoc-amide-resin; HBTU/HOBt; DCC/HOBt for final Boc-Gly.
A short description of series [3]: general procedure: Fmoc solid-phase peptide synthesis; Fmoc-amide resin; HBTU/HOBt; DCC/HOBt for final Boc-Gly.
Series [4] can be described thus: general procedure: Fmoc solid-phase peptide synthesis; Fmoc-Arg(Pmc)-HMP resin; HBTU/HOBt; DCC/HOBt for final Boc-Gly.

As for “GSK (CO—C7H15) FLSPEHQRVQQRKESKKPPAKLQPR”, the crude mass entry in series [1] is on record as “about 234 mg”.

For “GSD (NH—C7H15) FLSPEHQRVQQRKESKKPPAKLQPR”, in series [1], the crude mass result is “about 550 mg”.

Consider GSS(CO—C7H15)FLSPEH-NH2, for which the crude mass result in series [2] is reported as “about 250 mg”.

Regarding GSS(CO—C7H15)FLSPEHQRVQQRKESKKPPAKLQPR, the crude mass entry in series [1] was “about 550 mg”.

In series [3], C7H15CO-GSSFLSPEH-NH2 returned a crude mass of 200 mg.

Consider “NH2—(CH2)4—CO-Ser(C8H17)-MePhe-MeLeu-NH2”, for which the crude mass in series [3] is 120 mg.

With GSC(C-Ph3) FLSPEHQRVQQRKESKKPPAKLQPR, in series [4], the isolated mass result is “about 60 mg”.

Source of the values: patent US7385026B1 (priority 1999, dated 2008).
